Test results published in patent US20150104808A1 (Janssen / Centocor, published 2015).
Results are given in words; binding and its absence hold for the method and conditions named. Some results given as binding are weak or reduced against the parent protein; the word gives no strength.

target: EGFR as used in the EGFR binding assay of Example 5 (human) (UniProt P00533); experiment: summary of the cysteine scan

Binder	binding
P54AR4-83v2 D15C, NEM conjugate (designed binder, not shown: small tags and cut ends, N-ethyl maleimide (NEM) on Cys 15) LPAPKNLVVSEVTECSARLSWDDPWAFYESFLIQYQESEKVGEAIVLTVPGSERSYDLTGLKPGTEYTVSIYGVHNVYKDTNMRGLPLSAIFTT	binds
P54AR4-83v2 S10C, NEM conjugate (designed binder, not shown: small tags and cut ends, N-ethyl maleimide (NEM) on Cys 10) LPAPKNLVVCEVTEDSARLSWDDPWAFYESFLIQYQESEKVGEAIVLTVPGSERSYDLTGLKPGTEYTVSIYGVHNVYKDTNMRGLPLSAIFTT	binds
P54AR4-83v2 L47C, NEM conjugate (designed binder, not shown: small tags and cut ends, N-ethyl maleimide (NEM) on Cys 47) LPAPKNLVVSEVTEDSARLSWDDPWAFYESFLIQYQESEKVGEAIVCTVPGSERSYDLTGLKPGTEYTVSIYGVHNVYKDTNMRGLPLSAIFTT	binds
P54AR4-83v2 L88C, NEM conjugate (designed binder, not shown: small tags and cut ends, N-ethyl maleimide (NEM) on Cys 88) LPAPKNLVVSEVTEDSARLSWDDPWAFYESFLIQYQESEKVGEAIVLTVPGSERSYDLTGLKPGTEYTVSIYGVHNVYKDTNMRGLPCSAIFTT	binds
P54AR4-83v2 N6C, NEM conjugate (designed binder, not shown: small tags and cut ends, N-ethyl maleimide (NEM) on Cys 6) LPAPKCLVVSEVTEDSARLSWDDPWAFYESFLIQYQESEKVGEAIVLTVPGSERSYDLTGLKPGTEYTVSIYGVHNVYKDTNMRGLPLSAIFTT	binds
P54AR4-83v2 G60C, NEM conjugate (designed binder, not shown: small tags and cut ends, N-ethyl maleimide (NEM) on Cys 60) LPAPKNLVVSEVTEDSARLSWDDPWAFYESFLIQYQESEKVGEAIVLTVPGSERSYDLTCLKPGTEYTVSIYGVHNVYKDTNMRGLPLSAIFTT	binds
P54AR4-83v2 A90C, NEM conjugate (designed binder, not shown: small tags and cut ends, N-ethyl maleimide (NEM) on Cys 90) LPAPKNLVVSEVTEDSARLSWDDPWAFYESFLIQYQESEKVGEAIVLTVPGSERSYDLTGLKPGTEYTVSIYGVHNVYKDTNMRGLPLSCIFTT	binds
P54AR4-83v2 I91C, NEM conjugate (designed binder, not shown: small tags and cut ends, N-ethyl maleimide (NEM) on Cys 91) LPAPKNLVVSEVTEDSARLSWDDPWAFYESFLIQYQESEKVGEAIVLTVPGSERSYDLTGLKPGTEYTVSIYGVHNVYKDTNMRGLPLSACFTT	binds
P54AR4-83v2 Q34C, NEM conjugate (designed binder, not shown: small tags and cut ends, N-ethyl maleimide (NEM) on Cys 34) LPAPKNLVVSEVTEDSARLSWDDPWAFYESFLICYQESEKVGEAIVLTVPGSERSYDLTGLKPGTEYTVSIYGVHNVYKDTNMRGLPLSAIFTT	binds
P54AR4-83v2 E14C, NEM conjugate (designed binder, not shown: small tags and cut ends, N-ethyl maleimide (NEM) on Cys 14) LPAPKNLVVSEVTCDSARLSWDDPWAFYESFLIQYQESEKVGEAIVLTVPGSERSYDLTGLKPGTEYTVSIYGVHNVYKDTNMRGLPLSAIFTT	binds
P54AR4-83v2 K62C, NEM conjugate (designed binder, not shown: small tags and cut ends, N-ethyl maleimide (NEM) on Cys 62) LPAPKNLVVSEVTEDSARLSWDDPWAFYESFLIQYQESEKVGEAIVLTVPGSERSYDLTGLCPGTEYTVSIYGVHNVYKDTNMRGLPLSAIFTT	binds
P54AR4-83v2 E53C, NEM conjugate (designed binder, not shown: small tags and cut ends, N-ethyl maleimide (NEM) on Cys 53) LPAPKNLVVSEVTEDSARLSWDDPWAFYESFLIQYQESEKVGEAIVLTVPGSCRSYDLTGLKPGTEYTVSIYGVHNVYKDTNMRGLPLSAIFTT	binds
P54AR4-83v2 K40C, NEM conjugate (designed binder, not shown: small tags and cut ends, N-ethyl maleimide (NEM) on Cys 40) LPAPKNLVVSEVTEDSARLSWDDPWAFYESFLIQYQESECVGEAIVLTVPGSERSYDLTGLKPGTEYTVSIYGVHNVYKDTNMRGLPLSAIFTT	binds
P54AR4-83v2 R54C, NEM conjugate (designed binder, not shown: small tags and cut ends, N-ethyl maleimide (NEM) on Cys 54) LPAPKNLVVSEVTEDSARLSWDDPWAFYESFLIQYQESEKVGEAIVLTVPGSECSYDLTGLKPGTEYTVSIYGVHNVYKDTNMRGLPLSAIFTT	binds
P54AR4-83v2 G64C, NEM conjugate (designed binder, not shown: small tags and cut ends, N-ethyl maleimide (NEM) on Cys 64) LPAPKNLVVSEVTEDSARLSWDDPWAFYESFLIQYQESEKVGEAIVLTVPGSERSYDLTGLKPCTEYTVSIYGVHNVYKDTNMRGLPLSAIFTT	binds
P54AR4-83v2 E11C, NEM conjugate (designed binder, not shown: small tags and cut ends, N-ethyl maleimide (NEM) on Cys 11) LPAPKNLVVSCVTEDSARLSWDDPWAFYESFLIQYQESEKVGEAIVLTVPGSERSYDLTGLKPGTEYTVSIYGVHNVYKDTNMRGLPLSAIFTT	binds
P54AR4-83v2 I45C, NEM conjugate (designed binder, not shown: small tags and cut ends, N-ethyl maleimide (NEM) on Cys 45) LPAPKNLVVSEVTEDSARLSWDDPWAFYESFLIQYQESEKVGEACVLTVPGSERSYDLTGLKPGTEYTVSIYGVHNVYKDTNMRGLPLSAIFTT	binds

Results, then the binder that gave them:

binding	Binder
binds	P54AR4-83v2 S30C, NEM conjugate (designed binder, not shown: small tags and cut ends, N-ethyl maleimide (NEM) on Cys 30) LPAPKNLVVSEVTEDSARLSWDDPWAFYECFLIQYQESEKVGEAIVLTVPGSERSYDLTGLKPGTEYTVSIYGVHNVYKDTNMRGLPLSAIFTT
binds	P54AR4-83v2 S70C, NEM conjugate (designed binder, not shown: small tags and cut ends, N-ethyl maleimide (NEM) on Cys 70) LPAPKNLVVSEVTEDSARLSWDDPWAFYESFLIQYQESEKVGEAIVLTVPGSERSYDLTGLKPGTEYTVCIYGVHNVYKDTNMRGLPLSAIFTT
binds	P54AR4-83v2 S20C, NEM conjugate (designed binder, not shown: small tags and cut ends, N-ethyl maleimide (NEM) on Cys 20) LPAPKNLVVSEVTEDSARLCWDDPWAFYESFLIQYQESEKVGEAIVLTVPGSERSYDLTGLKPGTEYTVSIYGVHNVYKDTNMRGLPLSAIFTT
binds	P54AR4-83v2 V8C, NEM conjugate (designed binder, not shown: small tags and cut ends, N-ethyl maleimide (NEM) on Cys 8) LPAPKNLCVSEVTEDSARLSWDDPWAFYESFLIQYQESEKVGEAIVLTVPGSERSYDLTGLKPGTEYTVSIYGVHNVYKDTNMRGLPLSAIFTT
binds	P54AR4-83v2 T48C, NEM conjugate (designed binder, not shown: small tags and cut ends, N-ethyl maleimide (NEM) on Cys 48) LPAPKNLVVSEVTEDSARLSWDDPWAFYESFLIQYQESEKVGEAIVLCVPGSERSYDLTGLKPGTEYTVSIYGVHNVYKDTNMRGLPLSAIFTT
binds	P54AR4-83v2 S38C, NEM conjugate (designed binder, not shown: small tags and cut ends, N-ethyl maleimide (NEM) on Cys 38) LPAPKNLVVSEVTEDSARLSWDDPWAFYESFLIQYQECEKVGEAIVLTVPGSERSYDLTGLKPGTEYTVSIYGVHNVYKDTNMRGLPLSAIFTT
binds	P54AR4-83v2 V41C, NEM conjugate (designed binder, not shown: small tags and cut ends, N-ethyl maleimide (NEM) on Cys 41) LPAPKNLVVSEVTEDSARLSWDDPWAFYESFLIQYQESEKCGEAIVLTVPGSERSYDLTGLKPGTEYTVSIYGVHNVYKDTNMRGLPLSAIFTT
binds	P54AR4-83v2 T68C, NEM conjugate (designed binder, not shown: small tags and cut ends, N-ethyl maleimide (NEM) on Cys 68) LPAPKNLVVSEVTEDSARLSWDDPWAFYESFLIQYQESEKVGEAIVLTVPGSERSYDLTGLKPGTEYCVSIYGVHNVYKDTNMRGLPLSAIFTT
binds	P54AR4-83v2 S16C, NEM conjugate (designed binder, not shown: small tags and cut ends, N-ethyl maleimide (NEM) on Cys 16) LPAPKNLVVSEVTEDCARLSWDDPWAFYESFLIQYQESEKVGEAIVLTVPGSERSYDLTGLKPGTEYTVSIYGVHNVYKDTNMRGLPLSAIFTT
binds	P54AR4-83v2 T59C, NEM conjugate (designed binder, not shown: small tags and cut ends, N-ethyl maleimide (NEM) on Cys 59) LPAPKNLVVSEVTEDSARLSWDDPWAFYESFLIQYQESEKVGEAIVLTVPGSERSYDLCGLKPGTEYTVSIYGVHNVYKDTNMRGLPLSAIFTT
binds	P54AR4-83v2 S89C, NEM conjugate (designed binder, not shown: small tags and cut ends, N-ethyl maleimide (NEM) on Cys 89) LPAPKNLVVSEVTEDSARLSWDDPWAFYESFLIQYQESEKVGEAIVLTVPGSERSYDLTGLKPGTEYTVSIYGVHNVYKDTNMRGLPLCAIFTT
binds	P54AR4-83v2 T93C, NEM conjugate (designed binder, not shown: small tags and cut ends, N-ethyl maleimide (NEM) on Cys 93) LPAPKNLVVSEVTEDSARLSWDDPWAFYESFLIQYQESEKVGEAIVLTVPGSERSYDLTGLKPGTEYTVSIYGVHNVYKDTNMRGLPLSAIFCT

target: EGFR as used in the EGFR binding assay of Example 5 (human) (UniProt P00533); experiment: EGFR binding ELISA, NEM conjugate

Binder	binding
P54AR4-83v2 A3C, NEM conjugate (designed binder, not shown: small tags and cut ends, N-ethyl maleimide (NEM) on Cys 3) LPCPKNLVVSEVTEDSARLSWDDPWAFYESFLIQYQESEKVGEAIVLTVPGSERSYDLTGLKPGTEYTVSIYGVHNVYKDTNMRGLPLSAIFTT	binds
P54AR4-83v2 N82C, NEM conjugate (designed binder, not shown: small tags and cut ends, N-ethyl maleimide (NEM) on Cys 82) LPAPKNLVVSEVTEDSARLSWDDPWAFYESFLIQYQESEKVGEAIVLTVPGSERSYDLTGLKPGTEYTVSIYGVHNVYKDTCMRGLPLSAIFTT	binds
P54AR4-83v2 K5C, NEM conjugate (designed binder, not shown: small tags and cut ends, N-ethyl maleimide (NEM) on Cys 5) LPAPCNLVVSEVTEDSARLSWDDPWAFYESFLIQYQESEKVGEAIVLTVPGSERSYDLTGLKPGTEYTVSIYGVHNVYKDTNMRGLPLSAIFTT	binds
P54AR4-83v2 L7C, NEM conjugate (designed binder, not shown: small tags and cut ends, N-ethyl maleimide (NEM) on Cys 7) LPAPKNCVVSEVTEDSARLSWDDPWAFYESFLIQYQESEKVGEAIVLTVPGSERSYDLTGLKPGTEYTVSIYGVHNVYKDTNMRGLPLSAIFTT	binds

Other lines, results leading:

binding	Binder
binds	P54AR4-83v2 T81C, NEM conjugate (designed binder, not shown: small tags and cut ends, N-ethyl maleimide (NEM) on Cys 81) LPAPKNLVVSEVTEDSARLSWDDPWAFYESFLIQYQESEKVGEAIVLTVPGSERSYDLTGLKPGTEYTVSIYGVHNVYKDCNMRGLPLSAIFTT
binds	P54AR4-83v2 W25C, NEM conjugate (designed binder, not shown: small tags and cut ends, N-ethyl maleimide (NEM) on Cys 25) LPAPKNLVVSEVTEDSARLSWDDPCAFYESFLIQYQESEKVGEAIVLTVPGSERSYDLTGLKPGTEYTVSIYGVHNVYKDTNMRGLPLSAIFTT
binds	P54AR4-83v2 Y78C, NEM conjugate (designed binder, not shown: small tags and cut ends, N-ethyl maleimide (NEM) on Cys 78) LPAPKNLVVSEVTEDSARLSWDDPWAFYESFLIQYQESEKVGEAIVLTVPGSERSYDLTGLKPGTEYTVSIYGVHNVCKDTNMRGLPLSAIFTT
